Results reported in article PMC4783006.

Amino acid sequences for entries named in this document (tags omitted). A change or cut given only in a name is not applied to a line headed by its entry.
UniProt Q6K678: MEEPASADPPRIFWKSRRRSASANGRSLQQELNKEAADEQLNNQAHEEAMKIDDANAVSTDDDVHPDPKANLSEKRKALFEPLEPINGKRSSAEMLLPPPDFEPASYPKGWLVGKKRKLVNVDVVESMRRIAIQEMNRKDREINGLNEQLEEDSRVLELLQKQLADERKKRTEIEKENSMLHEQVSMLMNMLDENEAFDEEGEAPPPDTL
UniProt E5RQA1: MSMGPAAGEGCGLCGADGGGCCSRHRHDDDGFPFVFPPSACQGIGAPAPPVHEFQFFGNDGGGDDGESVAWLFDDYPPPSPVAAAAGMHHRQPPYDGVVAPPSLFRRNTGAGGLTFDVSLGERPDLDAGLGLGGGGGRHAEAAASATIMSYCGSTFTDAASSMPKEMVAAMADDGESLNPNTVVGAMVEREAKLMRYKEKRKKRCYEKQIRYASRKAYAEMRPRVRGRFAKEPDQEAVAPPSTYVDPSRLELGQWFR
UniProt Q93WI9: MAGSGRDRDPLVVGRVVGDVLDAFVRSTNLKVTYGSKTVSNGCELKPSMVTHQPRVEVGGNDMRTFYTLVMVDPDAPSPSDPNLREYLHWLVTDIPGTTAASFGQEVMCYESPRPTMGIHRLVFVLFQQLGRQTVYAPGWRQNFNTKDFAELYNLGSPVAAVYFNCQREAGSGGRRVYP
UniProt Q9FDX8: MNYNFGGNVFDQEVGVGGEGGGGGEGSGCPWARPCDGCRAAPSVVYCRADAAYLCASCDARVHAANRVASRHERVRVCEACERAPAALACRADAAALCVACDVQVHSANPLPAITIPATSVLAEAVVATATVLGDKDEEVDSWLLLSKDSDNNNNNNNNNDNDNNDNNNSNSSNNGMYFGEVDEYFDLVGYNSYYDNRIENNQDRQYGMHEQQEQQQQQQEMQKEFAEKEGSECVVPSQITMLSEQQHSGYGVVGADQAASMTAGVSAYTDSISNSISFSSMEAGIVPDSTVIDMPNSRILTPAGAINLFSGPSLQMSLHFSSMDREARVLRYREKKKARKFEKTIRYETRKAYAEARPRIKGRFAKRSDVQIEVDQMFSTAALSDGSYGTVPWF
UniProt Q8VWH2: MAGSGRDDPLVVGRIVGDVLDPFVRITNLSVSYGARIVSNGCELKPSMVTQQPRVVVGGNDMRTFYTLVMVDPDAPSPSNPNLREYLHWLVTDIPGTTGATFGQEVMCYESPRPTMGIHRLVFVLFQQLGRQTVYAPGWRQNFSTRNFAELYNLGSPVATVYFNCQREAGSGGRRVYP
UniProt Q9XJ60: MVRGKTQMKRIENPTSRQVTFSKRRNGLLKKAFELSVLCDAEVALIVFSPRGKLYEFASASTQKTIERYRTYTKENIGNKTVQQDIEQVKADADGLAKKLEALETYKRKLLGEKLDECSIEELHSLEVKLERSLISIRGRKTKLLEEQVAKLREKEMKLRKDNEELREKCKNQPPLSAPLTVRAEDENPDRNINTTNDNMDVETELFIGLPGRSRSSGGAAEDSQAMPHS

What was measured:
[1] = molecular target: Heading Date Repressor 1 (HDR1), yeast two-hybrid fusion (rice (Oryza sativa)) (UniProt Q6K678); assay: two-hybrid; direct test; pGADT7 (AD) and pGBKT7 (BD) fusions in S. cerevisiae AH109; spotted on SD lacking leucine, tryptophan, histidine and adenine
[2] = molecular target: Heading Date Repressor 1 (HDR1), yeast two-hybrid fusion (rice (Oryza sativa)) (UniProt Q6K678); assay: as above; remark: listed apart in the source
[3] = molecular target: HDR1, BiFC fusion (pSAT1-nVenus-C-HDR1) (rice (Oryza sativa)); assay: split reporter; BiFC in Arabidopsis protoplasts; nVenus and cCFP fusions; YFP signal in the nuclei
[4] = molecular target: FLAG-HDR1 (rice (Oryza sativa)); assay: co-IP; total protein from leaves of FLAG-HDR1 transgenic and WT rice; anti-FLAG immunoprecipitation; blot with OsK4 antibody

binding [1]: no binding
Molecule: Ghd7 (Grain number, plant height and heading date 7), yeast two-hybrid fusion (from UniProt E5RQA1 1-257)

binding [1]: no binding
Molecule: Heading date 3a (HD3A), yeast two-hybrid fusion (from UniProt Q93WI9 1-179)

binding [1]: no binding
Molecule: Heading date 1 (HD1), yeast hybrid fusion (from UniProt Q9FDX8 1-395)

binding [1]: no binding
Molecule: RICE FLOWERING LOCUS T1 (RFT1), yeast two-hybrid fusion (from UniProt Q8VWH2 1-178)

binding [1]: no binding
Molecule: OsMADS50, yeast two-hybrid fusion (from UniProt Q9XJ60 1-230)

binding [2]: binds
B1: OsK3, yeast two-hybrid fusion (enzyme, UniProt Q852Q0 1-508)
chain: MDGNAKGGGHSEALKNYNLGRTLGIGSFGKVKIAEHKLTGHRVAIKILNRRQMRNMEMEEKAKREIKILRLFIHPHIIRLYEVIYTPTDIYVVMEYCKFGELFDYIVEKGRLQEDEARRIFQQIISGVEYCHRNMVVHRDLKPENLLLDSKYNVKLADFGLSNVMHDGHFLKTSCGSPNYAAPEVISGKLYAGPEVDVWSCGVILYALLCGTLPFDDENIPNLFKKIKGGIYTLPSHLSALARDLIPRMLVVDPMKRITIREIREHQWFQIRLPRYLAVPPPDTAQQAKMIDEDTLQDVVNLGYGKDHVCESLRNRLQNEATVAYYLLLDNRFRATSGYLGADYQESLERNFNRFASSESASSNTRHYLPGSSDPHASGLRPHYPVERKWALGLQSRAQPREIMIEVLKALQDLNVSWKKNGQYNMKCRWSVGTQATDMLDVNNSFVDDSIIMDNGDVNGRLPAVIKFEIQLYKTRDEKYLLDMQRVTGPQLLFLDFCADFLTKLRVL

binding [2]: binds
B2: OsK4, yeast two-hybrid fusion (enzyme, UniProt Q852Q1 1-509)
chain: MEGNARGGGHSEALKNYNLGRTLGIGSFGKVKIAEHKLTGHRVAIKILNRRQMRNMEMEEKAKREIKILRLFIHPHIIRLYEVIYTPTDIYVVMEYCKFGELFDYIVEKGRLQEDEARRIFQQIISGVEYCHRNMVVHRDLKPENLLLDSKYNVKLADFGLSNVMHDGHFLKTSCGSPNYAAPEVISGKLYAGPEVDVWSCGVILYALLCGTLPFDDENIPNLFKKIKGGIYTLPSHLSALARDLIPRMLVVDPMKRITIREIREHQWFQIRLPRYLAVPPPDTAQQAKMIDEDTLQDVVNLGYEKDHVCESLRNRLQNEATVAYYLLLDNRFRATSGYLGADYQESLERNLNRFASSESASSNTRHYLPGSSDPHASGLRPHYPVERKWALGLQSRAQPREIMIEVLKALEDLNVCWKKNGQYNMKCRWSVGYPQATDMLDVNHSFVDDSIIMDNGDVNGRLPAVIKFEIQLYKSRDEKYLLDMQRVTGPQLLFLDFCAAFLTKLRVL

binding [3]: binds
B3: OsK4, BiFC fusion (pSAT1-cCFP-N-OsK4) (enzyme, UniProt Q852Q1 1-509)
chain: B2 chain

binding [4]: binds
B4: OsK4, endogenous in rice leaves (enzyme, UniProt Q852Q1 1-509)
chain: B2 chain

binding [2]: no binding
B5: Early heading date 1 (EHD1), yeast hybrid fusion (protein, UniProt Q7Y0W5 1-341)
chain: MDHRELWPYGLRVLVIDDDCSYLSVMEDLLLKCSYKVTTYKNVREAVPFILDNPQIVDLVISDAFFPTEDGLLILQEVTSKFGIPTVIMASSGDTNTVMKYVANGAFDFLLKPVRIEELSNIWQHIFRKQMQDHKNNNMVGNLEKPGHPPSILAMARATPATTRSTATEASLAPLENEVRDDMVNYNGEITDIRDLGKSRLTWTTQLHRQFIAAVNHLGEDKAVPKKILGIMKVKHLTREQVASHLQKYRMQLKKSIPTTSKHGATLSSTALDKTQDHPSRSQYFNQDGCKEIMDYSLPRDDLSSGSECMLEELNDYSSEGFQDFRWDSDKQEYGPCFWNF

Like-named read-outs stand apart in the source and are kept apart here. These are yes or no findings as the source states them, for the method shown. For some of these results: Binding calls can cover weak binding; strength is not graded here. For some of these results: Tags and fused reporters may be left off the sequences shown. For some of these results: In cells and extracts the contact can be indirect. One block for each molecule: values may come before it.
